Entries after “also recorded” stand apart in the source; their conditions may differ. At least one compound was matched to its structure with a doubt left.
What was measured:
[1] = system: MHC Class II (IA-IE) in CT26 mouse colon tumor cells; test: in vitro induction of MHC Class II (IA-IE) in CT26 cells (FACS); assay type: cell-based
[2] = system: CT26 tumors; test: Tumor Growth Inhibition In Vivo - CT26 Murine Colon Carcinoma; design: species or system mouse (Balb/c); conditions: CT26 tumors in mice; I-1 50 mg/kg p.o. BID, anti-PD-1 10 mg/kg i.p. BIW
[3] = system: RENCA tumors; test: Tumor Growth Inhibition In Vivo - Renca Murine Renal Cell Carcinoma; design: species or system mouse (Balb/c)
[4] = system: P388D1 tumors; test: Tumor Growth Inhibition In Vivo - P388D1 Murine Lymphoma; design: species or system mouse (DBA/2); conditions: I-1 50 mg/kg p.o. BID
[5] = mice with P388D1 tumors, day 11

CC(=O)Nc1ccc(C(=O)Nc2ccc(F)cc2N)cc1 [Compound I-1]
in vitro induction of MHC Class II (IA-IE) [1]: did not appear to induce; also recorded: did not express MHC class II | efficacy in treating tumors (TGI, tumor volume) [2]: did not induce TGI; also recorded: not effective | efficacy in treating tumors (tumor response) ([3]; RENCA model, I-1 10 mg/kg and 3 mg/kg BID, anti-PD-1 10 mg/kg BIW): effective | efficacy in treating tumors (tumor volume) ([3]; RENCA tumors in mice, I-1 50 mg/kg p.o. BID, anti-PD-1 10 mg/kg i.p. BIW): demonstrates efficacy; also recorded: effective | CD3-positive infiltrates in tumors ([3]; mice with RENCA tumors): increased CD3-positive infiltrates | induction of MHC Class II in vivo in tumors ([3]; mice with RENCA tumors): induced MHC Class II in vivo | efficacy in treating tumors (tumor volume) ([4]; P388D1 tumors in mice, anti-PD-1 10 mg/kg i.p. BIW): tumor growth inhibition; also recorded: effective | CD3-positive infiltrates in tumors [4, 5]: increased CD3-positive infiltrates | induction of MHC Class II in vivo in tumors [4, 5]: induced MHC class II in vivo

— patent publication US12128018B2, “Combination of a selective histone deacetylase 3 (HDAC3) inhibitor and an immunotherapy agent for the treatment of cancer” (KDAc Therapeutics, Inc., priority 2018, dated 2024)
